In US6361968:
The exact form of at least one protein or probe is not confirmed.

The chains behind the UniProt entries cited, without tags or fusion partners. Residues count along the entry.
UniProt P05554, 272-358, stated change not applied: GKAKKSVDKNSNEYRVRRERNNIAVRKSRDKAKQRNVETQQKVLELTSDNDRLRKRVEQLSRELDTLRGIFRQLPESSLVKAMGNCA

Target: C/EBP bZIP domain (sequence printed as SEQ 43, described there as GCN4-C/EBP chimera) (UniProt P05554)
Test: EMSA
Settings: CITED Cao et al. 1991 for Kd; binding shown in own gel shift (FIG. 14A), abolished by equimolar 3heptad-F; gel shift probe only described as 28 bp consensus; purified recombinant protein

With “GTCAGTCAGATTGCGCAATATCGGTCAG (double strand) [28 bp C/EBP consensus gel shift probe]” the Kd was 1 nM.
